PubChem BioAssay AID1347422 (Sanford-Burnham Center for Chemical Genomics, 2020)
The full ranking holds about 1,000 compounds; the median of “thermal shift dTm” is about 0.19, and the highest 2% start at about 1.7. The list shows a part of the results. Activity calls are given as the source filed them.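 The calls were made as follows: active = mean rise in melting temperature of at least 1 degC over same-plate control wells; inactive = below that, where a call was filed.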

The chains behind the UniProt entries cited, without tags or fusion partners. Where a name states a change or a piece, a line headed by the entry shows the natural chain unless it says otherwise.
UniProt O00391: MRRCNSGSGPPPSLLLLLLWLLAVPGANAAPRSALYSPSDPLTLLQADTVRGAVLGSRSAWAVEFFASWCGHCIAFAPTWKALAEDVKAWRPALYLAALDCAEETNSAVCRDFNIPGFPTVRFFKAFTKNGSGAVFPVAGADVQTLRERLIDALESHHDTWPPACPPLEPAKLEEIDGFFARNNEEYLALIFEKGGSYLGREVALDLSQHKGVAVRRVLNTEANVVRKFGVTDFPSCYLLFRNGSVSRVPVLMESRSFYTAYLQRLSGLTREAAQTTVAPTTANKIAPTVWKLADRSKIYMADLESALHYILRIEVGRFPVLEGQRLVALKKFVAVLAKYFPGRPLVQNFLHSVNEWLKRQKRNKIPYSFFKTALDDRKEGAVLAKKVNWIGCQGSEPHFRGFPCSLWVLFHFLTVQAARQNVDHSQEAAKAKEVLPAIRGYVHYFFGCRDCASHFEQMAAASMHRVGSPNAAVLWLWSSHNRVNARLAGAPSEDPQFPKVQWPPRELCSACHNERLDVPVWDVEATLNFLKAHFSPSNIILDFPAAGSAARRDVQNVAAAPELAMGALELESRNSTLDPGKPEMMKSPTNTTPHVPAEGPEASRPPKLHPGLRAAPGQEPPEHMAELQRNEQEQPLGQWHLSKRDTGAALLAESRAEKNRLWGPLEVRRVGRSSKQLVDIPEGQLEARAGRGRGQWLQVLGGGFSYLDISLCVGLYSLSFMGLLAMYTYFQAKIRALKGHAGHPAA

biological target: Sulfhydryl oxidase 1 (Homo sapiens) (UniProt O00391); experiment: ligand-induced melting shift of human QSOX1 – biophysical, protein thermal shift, single concentration, QSOX1 inhibitor project, confirmation (AID 1347422); conditions: recombinant hQSOX1 thermal shift, Sypro Orange, at 25 µM, stronger effect = higher value;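 also: dTm is compound Tm minus mean Tm of DMSO-only wells on that plate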

| Structure (SMILES) | thermal shift dTm |
| --- | --- |
| COC(=O)c1ccc(Nc2nnc(-c3ccc(C)c(S(N)(=O)=O)c3)c3ccccc23)cc1 | 0.15 °C |
| Nc1ccc(Br)cc1-c1nnc(CCc2ccccc2)o1 | 0.34 °C |
| COc1cc(NC(=O)Nc2cccc(C)c2)cc(OC)c1OC | 0.32 °C |
| O=C(Nc1nccs1)c1cccc(NC(=O)c2cc3ccccc3o2)c1 | active: 1.07 °C |
| CC(=O)Nc1ccc(-c2nnc(-c3cccc(C)c3)o2)cc1 | 0.75 °C |
| COc1ccccc1CCNC(=S)Nc1ccc(S(N)(=O)=O)cc1 | active: 1.21 °C |
| CC(C)(C)NC(=O)c1ccc(NC(=O)c2cccc(Cl)c2)cc1 | 0.37 °C |
| CCCCOc1ccc(/C=C/C(=O)NC(C)c2ccccc2)cc1 (centres undefined) | 0.35 °C |
| C=Cc1cccc(NC(=O)c2ccc(OC)cc2)c1 | 0.2 °C |
| Cc1ccnc(SCc2cc(=O)c3c(=O)n(-c4ccccc4)[nH]c3[nH]2)n1 | 0.19 °C |
| O=S(=O)(NCc1nc(-c2cccs2)no1)c1ccc2ccccc2c1 | inactive: -0.03 °C |
| O=C(Nc1cccc(O)c1)c1cc(S(=O)(=O)N2CCOCC2)cs1 | 0.23 °C |
| CNS(=O)(=O)c1cc(-c2ccc(Nc3ccc(OC)cc3)nn2)ccc1C | active: 1.23 °C |
| Nc1c(S(=O)(=O)Cc2ccccc2)sc2nc3c(cc12)CCCC3 | 0.15 °C |
| O=C(NCCO)Nc1ccc(Cl)c(Cl)c1 | inactive: 0 °C |
| Cc1sc(NC(=O)Cc2ccc(Cl)cc2)nc1-c1ccccc1 | 0.21 °C |
| CC(=O)Nc1cccc(C(=O)Nc2ccc(Cl)cc2)c1 | inactive: -7.43 °C |
| Cc1ccc(S(=O)(=O)Nc2ccc(-c3cn4ccsc4n3)cc2)cc1 | active: 1.36 °C |
| COc1ccc(-c2nc(-c3cccs3)c(-c3cccs3)[nH]2)cc1 | 0.25 °C |
| CC(Sc1nc2c(c(=O)[nH]1)CCCC2)C(=O)Nc1ccc(Br)cc1 (centres undefined) | 0.29 °C |
| O=C(CCC1CCCN(C/C=C/c2ccc(F)cc2)C1)N1CCCC1 (centres undefined) | 0.18 °C |
| CCN(Cc1nc(-c2ccccc2C)oc1C)CC1CCCO1 (centres undefined) | 0.09 °C |
| CCOC(=O)c1ccc(NC(=O)Nc2ccccc2)c(C)c1 | 0.65 °C |

| Structure (SMILES) | thermal shift dTm |
| --- | --- |
| Cc1cccc(-c2noc(CNC(=O)c3ccc4ccccc4c3)n2)c1 | inactive: -0.03 °C |
| O=C(Cn1c(=O)n(-c2ccc(Cl)cc2)c(=O)c2ccccc21)Nc1ccccc1 | 0.15 °C |
| C=CCN1C(=O)c2[nH]nc(-c3cc(C)c(C)cc3O)c2C1c1ccccc1F (centres undefined) | 0.02 °C |
| COCCN(CC1CCN(Cc2ccccc2OC)CC1)C(=O)C1CCOCC1 | 0.19 °C |
| NC(=O)c1ccc(-c2cccc(-c3ccn[nH]3)c2)s1 | 0.18 °C |
| Cc1ccccc1OCC(=O)Nc1ccc2[nH]ncc2c1 | inactive: 0 °C |
| C(=C\c1nc2ccccc2n1Cc1cccc2ccccc12)/c1ccco1 | 0.25 °C |
| O=C(Nc1nccs1)c1ccc(-c2cccc(Cl)c2Cl)o1 | 0.19 °C |
| N#Cc1nc(/C=C/c2cccs2)oc1NCCc1ccccc1 | inactive: -37.7 °C |
| COc1ccc(CCNC2=NC(c3ccc(F)cc3F)=[C+]S2)cc1OC | inactive: -0.13 °C |
| CCCC(=O)NC(c1ccccc1OC)c1c(OC(=O)COc2ccccc2)ccc2ccccc12 (centres undefined) | inactive: -0.13 °C |
| CC(=O)Nc1ccc(NC(=O)c2ccc(NS(C)(=O)=O)cc2)cc1 | 0.33 °C |
| C/C=C/c1c(F)c(F)c(Oc2cccc(NC(C)=O)c2)c(F)c1F | 0.63 °C |
| Cc1ccc(C(NC(=O)C(C)C)c2c(O)ccc3ccccc23)cc1 (centres undefined) | 0.01 °C |
| Cc1ccccc1NS(=O)(=O)c1ccc2c3c(cccc13)C(=O)N2C | 0.14 °C |
| Nc1nc(/C=C/c2cccs2)nc(-c2ccccc2O)n1 | 0.83 °C |
| C=CCSC1=N/C(=C\c2ccc(-c3cccc(Cl)c3)o2)C(=O)S1 | 0.63 °C |
| CCCc1cc(C(N)=O)c(NC(=O)c2sc3ccccc3c2Cl)s1 | 0.01 °C |
| N/C(=N\OC(=O)c1ccc2c(c1)OCO2)c1ccc(Cl)cc1 | 0.3 °C |
| C=CCOc1cccc(NC(=O)COc2ccccc2)c1 | 0.23 °C |
| CC(C)N(Cc1ccccc1)C(=O)/C=C/c1ccc(Cl)cc1 | 0.72 °C |
| CC(=O)Nc1cccc(NC(=O)c2cccc(NC(=O)c3ccco3)c2)c1 | 0.37 °C |
| CCSC1=N/C(=C\c2ccc(-c3ccc(Cl)cc3)o2)C(=O)S1 | 0.34 °C |

| Structure (SMILES) | thermal shift dTm |
| --- | --- |
| COc1ccc2nc(NC(=O)c3ccc(C)o3)sc2c1 | 0.04 °C |
| CCc1sc(NC(=O)Cc2ccc(F)cc2)nc1-c1ccccc1 | 0.17 °C |
| COc1cccc(-c2nn(-c3ccccc3)cc2CN2CCCN(C(C)=O)CC2)c1 | 0.09 °C |
| COc1ccc(Cl)cc1NC(=O)NNS(=O)(=O)c1ccc2ccccc2c1 | 0.34 °C |
| Nc1ccc(-c2cccc(-c3ccn[nH]3)c2)cc1F | 0.18 °C |
| Oc1ccc(Nc2ncnc3ccc(Br)cc23)cc1 | inactive: -0.08 °C |
| COc1ccc(Cl)cc1Nc1nc(-c2ccccn2)cs1 | 0.1 °C |
| O=C1CC(CSc2nnnn2-c2ccccc2)=NN1c1nc2ccccc2[nH]1 | 0.43 °C |
| CCCCOc1ccc(C(=O)NCC2(c3ccccc3)CCCC2)cc1OC | inactive: -0.03 °C |
| COC(=O)c1ccc(NC(=O)c2ccc(-n3nncc3C)cc2)cc1 | inactive: -0.1 °C |
| O=C(Nc1ccc(-c2noc(-c3cccs3)n2)cc1)c1ccccc1F | 0.05 °C |
| O=C(Nc1ccc(NC(=O)C(Cl)Cl)cc1)C(Cl)Cl | 0.4 °C |
| COc1ccc(NC(=O)NCCc2ccc(Cl)cc2)cc1OC | inactive: -0.04 °C |
| Cc1cccc(OCC(=O)Nc2cccc(-c3nnc(-c4ccccc4)o3)c2)c1 | 0.68 °C |
| CCC(=O)Nc1ccc(NC(=O)/C=C/c2ccc(C(C)C)cc2)cc1 | 0.06 °C |
| Fc1ccc(COc2ccc(-c3cnc4ccccc4n3)cc2)cc1 | 0.58 °C |
| CC(NC(=O)c1ccc(-c2cc(Cl)ccc2Cl)o1)c1ccccc1 (centres undefined) | 0.07 °C |
| COc1cc(CO)cc(I)c1OCc1ccc(Cl)cc1 | 0.11 °C |
| CC(=O)Nc1cccc(-c2csc(Nc3ccc(O)c(C(=O)O)c3)n2)c1 | 0.72 °C |
| Oc1cccc(Nc2ncnc3ccc(I)cc23)c1 | 0.44 °C |
| CCSC1=N/C(=C\c2ccc(-c3ccc(F)cc3)o2)C(=O)S1 | 0.53 °C |
| Cc1cc(I)cc2c1NC(C(=O)O)C1CC=CC21 (centres undefined) | active: 1.44 °C |
| Cc1ccc(OCCn2cc(C(=S)N3CCOCC3)c3ccccc32)cc1 | 0.11 °C |

20 structures out of the list, sorted by formula weight, low to high.

| Structure (SMILES) | thermal shift dTm |
| --- | --- |
| Nc1ccc(-c2cccc(-c3ccn[nH]3)c2)cc1F | 0.18 °C |
| COc1ccc2nc(NC(=O)c3ccc(C)o3)sc2c1 | 0.04 °C |
| Oc1ccc(Nc2ncnc3ccc(Br)cc23)cc1 | inactive: -0.08 °C |
| COc1ccc(Cl)cc1Nc1nc(-c2ccccn2)cs1 | 0.1 °C |
| Fc1ccc(COc2ccc(-c3cnc4ccccc4n3)cc2)cc1 | 0.58 °C |
| CCSC1=N/C(=C\c2ccc(-c3ccc(F)cc3)o2)C(=O)S1 | 0.53 °C |
| COc1ccc(NC(=O)NCCc2ccc(Cl)cc2)cc1OC | inactive: -0.04 °C |
| CCC(=O)Nc1ccc(NC(=O)/C=C/c2ccc(C(C)C)cc2)cc1 | 0.06 °C |
| CCc1sc(NC(=O)Cc2ccc(F)cc2)nc1-c1ccccc1 | 0.17 °C |
| Cc1cc(I)cc2c1NC(C(=O)O)C1CC=CC21 (centres undefined) | active: 1.44 °C |
| CC(NC(=O)c1ccc(-c2cc(Cl)ccc2Cl)o1)c1ccccc1 (centres undefined) | 0.07 °C |
| Oc1cccc(Nc2ncnc3ccc(I)cc23)c1 | 0.44 °C |
| O=C(Nc1ccc(-c2noc(-c3cccs3)n2)cc1)c1ccccc1F | 0.05 °C |
| CC(=O)Nc1cccc(-c2csc(Nc3ccc(O)c(C(=O)O)c3)n2)c1 | 0.72 °C |
| Cc1ccc(OCCn2cc(C(=S)N3CCOCC3)c3ccccc32)cc1 | 0.11 °C |
| CCCCOc1ccc(C(=O)NCC2(c3ccccc3)CCCC2)cc1OC | inactive: -0.03 °C |
| Cc1cccc(OCC(=O)Nc2cccc(-c3nnc(-c4ccccc4)o3)c2)c1 | 0.68 °C |
| O=C1CC(CSc2nnnn2-c2ccccc2)=NN1c1nc2ccccc2[nH]1 | 0.43 °C |
| COc1cc(CO)cc(I)c1OCc1ccc(Cl)cc1 | 0.11 °C |
| COc1ccc(Cl)cc1NC(=O)NNS(=O)(=O)c1ccc2ccccc2c1 | 0.34 °C |
